# Assay results as given in article PMC7565926.
# By UniProt entry, the sequences of proteins in these tests, tags left out. Where a name states a change or a piece, a line headed by the entry shows the natural chain unless it says otherwise. Residues count along the entry.
# UniProt P10242: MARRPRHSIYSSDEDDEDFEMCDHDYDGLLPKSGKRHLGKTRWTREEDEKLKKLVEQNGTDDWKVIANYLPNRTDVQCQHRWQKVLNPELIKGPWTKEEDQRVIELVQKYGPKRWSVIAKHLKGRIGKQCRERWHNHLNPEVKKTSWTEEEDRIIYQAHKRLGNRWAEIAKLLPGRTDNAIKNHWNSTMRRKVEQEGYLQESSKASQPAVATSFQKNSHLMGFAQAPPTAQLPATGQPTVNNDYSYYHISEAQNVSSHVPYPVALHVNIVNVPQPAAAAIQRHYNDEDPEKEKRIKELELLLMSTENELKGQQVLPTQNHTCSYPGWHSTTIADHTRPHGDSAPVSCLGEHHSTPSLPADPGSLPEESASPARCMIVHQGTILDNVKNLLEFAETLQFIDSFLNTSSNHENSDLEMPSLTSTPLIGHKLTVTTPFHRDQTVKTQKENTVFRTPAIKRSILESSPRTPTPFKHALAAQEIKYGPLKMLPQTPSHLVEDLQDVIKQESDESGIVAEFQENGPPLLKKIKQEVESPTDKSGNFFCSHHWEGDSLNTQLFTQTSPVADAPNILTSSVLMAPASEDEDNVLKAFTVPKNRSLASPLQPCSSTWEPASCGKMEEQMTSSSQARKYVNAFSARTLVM
# GST-Myb 1-212: residues 1-212 of P10242
# GST-Myb 62-201: residues 62-201 of P10242
# No constants are given. Whether binding was seen depends on the method and setting. In cells and extracts the contact can be indirect. Some binding calls cover weakened binding; strength is not graded here. For some of these results: Sequences can lack the tags named with a protein.
# What was measured:
# [1] = biological target: T1, GST-NR4A3 ligand binding domain (GST 360-626) (UniProt Q92570); test: pull-down; GST fusion protein (1-2 micrograms) bound to glutathione agarose beads, incubated overnight at 4 °C with 10 uL in vitro translation in NETN buffer; bound proteins detected by immunoblot with anti-HA or anti-MYB; only the target purified
# T1 sequence: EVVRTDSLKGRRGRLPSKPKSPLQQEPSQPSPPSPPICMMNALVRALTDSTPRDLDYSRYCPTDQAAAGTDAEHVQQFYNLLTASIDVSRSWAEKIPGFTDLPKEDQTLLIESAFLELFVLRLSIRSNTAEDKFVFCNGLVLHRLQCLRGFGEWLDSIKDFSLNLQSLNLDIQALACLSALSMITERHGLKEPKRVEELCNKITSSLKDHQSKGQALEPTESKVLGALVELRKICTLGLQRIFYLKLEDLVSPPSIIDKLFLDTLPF
# GST-Myb 62-201 = GST-Myb 62-201 (UniProt P10242); test: as above
# GST-Myb 1-212 = GST-Myb 1-212 (UniProt P10242); test: as above
# HA-tagged NR4A3 = HA-tagged NR4A3 (UniProt Q92570); test: co-IP; Cos-7 cells co-transfected with HA-tagged NR4A3 and Myb; whole cell extract in RIPA buffer (50 mM Tris HCl pH 8.0, 150 mM NaCl, 2 mM EDTA, 1% NP-40, 0.5% deoxycholate, 0.1% SDS); immunoprecipitated overnight with anti-HA or control IgG; blot with anti-Myb
substance,measurement,setting,value
In vitro transcribed/translated full-length Myb protein (from UniProt P10242 1-640),binding,[1],binds
In vitro transcribed/translated full-length NR4A3 (HA-tagged) (from UniProt Q92570 1-626),binding,GST-Myb 62-201,binds
same,binding,GST-Myb 1-212,binds
Myb (from UniProt P10242 1-640),binding,HA-tagged NR4A3,binds
